The results in this text go back to paper doi:10.1101/2022.03.28.486115.

Chains of the proteins cited; added tags and fusions are not shown.
UniProt P35372, whole entry: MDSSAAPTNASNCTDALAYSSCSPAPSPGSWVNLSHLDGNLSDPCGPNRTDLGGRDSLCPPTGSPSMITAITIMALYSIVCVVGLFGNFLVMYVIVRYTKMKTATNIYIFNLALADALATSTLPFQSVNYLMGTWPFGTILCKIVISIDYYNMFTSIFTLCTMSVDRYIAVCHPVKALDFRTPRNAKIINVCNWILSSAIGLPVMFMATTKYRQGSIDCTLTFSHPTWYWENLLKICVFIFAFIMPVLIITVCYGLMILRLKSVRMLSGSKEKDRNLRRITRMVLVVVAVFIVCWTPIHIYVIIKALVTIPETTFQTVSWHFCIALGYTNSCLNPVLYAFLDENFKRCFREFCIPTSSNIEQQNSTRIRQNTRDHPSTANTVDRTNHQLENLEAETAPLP

These are yes or no findings as the source states them, for the method shown. In cells and extracts the contact can be indirect. These calls come from enrichment with a bait or labelling near it, and not all partners need be listed.

This experiment addresses APEX2-tagged μOR (human) (human) (UniProt P35372). Put plainly: proximity labelling.

For the substance ARRB2 (from UniProt P32121 1-409), the binding result was “binds”.
